No constants are given. Whether binding was seen depends on the method and setting. Some entries that bind do so weakly or less than the wild type. Where a sequence is shown, tags or fusion partners need not be part of it.

1 molecule from patent US20120208753A1 (published 2012) can be followed below.

The test concerns the target full length GDF-6 fused to a FLAG tag (secreted by transfected CHO cells) (human) (UniProt Q6KF10). The test is described as follows: non-reducing PAGE of protein isolated from CHO cells.

B1: full length GDF-6 fused to a FLAG tag (secreted by transfected CHO cells) (ligand, human, UniProt Q6KF10 336-455, looked up, not shown: small tags and cut ends)
chain: TAFASRHGKRHGKKSRLRCSKKPLHVNFKELGWDDWIIAPLEYEAYHCEGVCDFPLRSHLEPTNHAIIQTLMNSMDPGSTPPSCCVPTKLTPISILYIDAGNNVVYKQYEDMVVESCGCR
B1: the binding entry is given as “binds”.
